According to doi:10.1101/2021.02.12.430971:
No constants are given. Whether binding was seen depends on the method and setting. In cells and extracts the contact can be indirect. Some binding calls cover weakened binding; strength is not graded here.

Protein sequences, listed by entry. Tags and fused reporters are not part of them. Residues count along the entry.
UniProt P21730, whole entry: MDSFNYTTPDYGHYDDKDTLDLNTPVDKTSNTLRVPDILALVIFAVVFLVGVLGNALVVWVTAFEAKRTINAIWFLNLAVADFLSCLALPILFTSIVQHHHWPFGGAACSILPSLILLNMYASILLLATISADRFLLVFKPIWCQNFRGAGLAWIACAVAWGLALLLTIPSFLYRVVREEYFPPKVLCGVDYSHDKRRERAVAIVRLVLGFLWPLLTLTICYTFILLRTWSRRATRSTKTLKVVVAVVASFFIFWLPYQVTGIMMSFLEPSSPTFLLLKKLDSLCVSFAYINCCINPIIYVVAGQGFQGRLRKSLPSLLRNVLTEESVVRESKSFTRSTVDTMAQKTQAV
UniProt P20309, whole entry: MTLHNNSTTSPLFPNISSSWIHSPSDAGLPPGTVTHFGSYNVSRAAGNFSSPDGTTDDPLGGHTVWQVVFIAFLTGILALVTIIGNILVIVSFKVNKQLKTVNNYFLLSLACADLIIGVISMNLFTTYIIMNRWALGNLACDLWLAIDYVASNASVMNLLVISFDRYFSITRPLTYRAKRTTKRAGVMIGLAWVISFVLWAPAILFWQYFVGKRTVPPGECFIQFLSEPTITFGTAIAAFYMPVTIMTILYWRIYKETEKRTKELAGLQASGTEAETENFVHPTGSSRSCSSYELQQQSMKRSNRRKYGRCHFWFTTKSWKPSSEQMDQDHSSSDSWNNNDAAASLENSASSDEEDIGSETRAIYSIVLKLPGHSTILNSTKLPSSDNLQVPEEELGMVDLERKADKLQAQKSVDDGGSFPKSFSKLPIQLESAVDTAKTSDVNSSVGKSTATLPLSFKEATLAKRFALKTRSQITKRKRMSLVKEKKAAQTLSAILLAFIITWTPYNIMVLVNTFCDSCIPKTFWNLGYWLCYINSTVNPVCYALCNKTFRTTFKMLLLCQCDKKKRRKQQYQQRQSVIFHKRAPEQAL
UniProt P08173, whole entry: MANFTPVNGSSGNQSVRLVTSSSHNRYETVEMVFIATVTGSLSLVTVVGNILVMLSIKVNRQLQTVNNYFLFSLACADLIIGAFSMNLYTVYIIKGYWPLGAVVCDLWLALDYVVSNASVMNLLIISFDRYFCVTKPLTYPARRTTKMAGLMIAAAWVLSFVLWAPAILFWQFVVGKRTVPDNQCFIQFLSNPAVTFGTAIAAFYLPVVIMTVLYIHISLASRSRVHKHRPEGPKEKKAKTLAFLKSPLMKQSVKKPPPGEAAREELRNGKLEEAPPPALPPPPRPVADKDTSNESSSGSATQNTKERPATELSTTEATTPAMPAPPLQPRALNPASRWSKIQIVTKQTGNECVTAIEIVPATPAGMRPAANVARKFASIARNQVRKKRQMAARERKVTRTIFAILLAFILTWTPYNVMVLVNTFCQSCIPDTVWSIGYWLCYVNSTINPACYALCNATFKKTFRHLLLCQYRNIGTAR
UniProt P08912, whole entry: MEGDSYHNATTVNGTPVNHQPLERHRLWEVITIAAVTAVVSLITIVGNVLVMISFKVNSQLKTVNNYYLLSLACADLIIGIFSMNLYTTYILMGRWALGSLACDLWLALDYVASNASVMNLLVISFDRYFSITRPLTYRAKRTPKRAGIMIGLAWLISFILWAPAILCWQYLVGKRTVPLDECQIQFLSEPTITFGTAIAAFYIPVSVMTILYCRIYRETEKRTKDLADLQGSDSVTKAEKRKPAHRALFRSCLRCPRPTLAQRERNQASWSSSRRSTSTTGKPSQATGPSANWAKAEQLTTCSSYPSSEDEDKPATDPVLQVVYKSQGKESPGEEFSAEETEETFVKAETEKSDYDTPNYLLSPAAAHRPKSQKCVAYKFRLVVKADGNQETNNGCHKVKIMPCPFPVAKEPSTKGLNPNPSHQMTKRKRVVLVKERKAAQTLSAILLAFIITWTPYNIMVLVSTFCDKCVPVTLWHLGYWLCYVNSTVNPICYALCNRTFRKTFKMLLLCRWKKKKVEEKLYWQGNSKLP
UniProt Q03431, 27-593: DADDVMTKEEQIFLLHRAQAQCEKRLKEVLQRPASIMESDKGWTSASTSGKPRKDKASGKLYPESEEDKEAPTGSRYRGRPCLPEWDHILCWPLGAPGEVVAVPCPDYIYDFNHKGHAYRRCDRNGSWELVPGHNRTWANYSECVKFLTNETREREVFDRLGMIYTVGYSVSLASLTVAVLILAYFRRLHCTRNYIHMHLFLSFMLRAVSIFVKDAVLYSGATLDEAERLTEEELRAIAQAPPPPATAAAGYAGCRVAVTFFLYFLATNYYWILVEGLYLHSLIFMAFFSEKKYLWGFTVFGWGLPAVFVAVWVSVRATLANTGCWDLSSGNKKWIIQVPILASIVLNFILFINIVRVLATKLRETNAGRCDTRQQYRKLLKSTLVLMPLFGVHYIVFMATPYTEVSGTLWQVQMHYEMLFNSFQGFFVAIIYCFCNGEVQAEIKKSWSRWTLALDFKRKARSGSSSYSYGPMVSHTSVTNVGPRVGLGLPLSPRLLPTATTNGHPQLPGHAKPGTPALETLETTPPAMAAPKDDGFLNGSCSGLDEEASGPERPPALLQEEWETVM
UniProt P17870, whole entry: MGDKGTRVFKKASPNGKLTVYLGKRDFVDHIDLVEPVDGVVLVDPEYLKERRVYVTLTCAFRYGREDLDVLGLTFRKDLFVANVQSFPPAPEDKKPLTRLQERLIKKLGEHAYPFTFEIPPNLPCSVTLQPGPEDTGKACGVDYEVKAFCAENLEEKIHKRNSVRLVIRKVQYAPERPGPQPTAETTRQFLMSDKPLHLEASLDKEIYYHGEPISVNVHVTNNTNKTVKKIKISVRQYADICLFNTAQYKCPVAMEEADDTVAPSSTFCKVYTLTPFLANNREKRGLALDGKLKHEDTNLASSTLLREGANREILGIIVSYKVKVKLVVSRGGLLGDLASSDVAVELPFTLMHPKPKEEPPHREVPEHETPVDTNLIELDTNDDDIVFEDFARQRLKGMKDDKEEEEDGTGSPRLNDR
UniProt P32120, whole entry: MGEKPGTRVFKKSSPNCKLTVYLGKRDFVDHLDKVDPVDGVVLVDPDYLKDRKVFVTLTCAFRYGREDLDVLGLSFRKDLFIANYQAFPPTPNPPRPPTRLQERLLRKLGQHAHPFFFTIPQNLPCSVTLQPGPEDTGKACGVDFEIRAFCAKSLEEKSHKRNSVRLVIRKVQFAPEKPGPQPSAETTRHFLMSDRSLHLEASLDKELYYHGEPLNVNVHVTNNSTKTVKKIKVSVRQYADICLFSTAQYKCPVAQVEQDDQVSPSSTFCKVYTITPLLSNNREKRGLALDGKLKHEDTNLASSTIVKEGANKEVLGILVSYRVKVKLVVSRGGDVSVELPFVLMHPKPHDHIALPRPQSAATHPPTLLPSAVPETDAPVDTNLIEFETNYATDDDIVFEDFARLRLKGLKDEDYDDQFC

What was measured:
Test in all cases: FRET or BRET
[1] = target: Angiotensin 1 receptor-NanoLuc (human) (UniProt P30556)
[2] = target: complement 5a receptor 1-NanoLuc (human) (UniProt P21730)
[3] = target: muscarinic 3 acetylcholine receptor-NanoLuc (human) (UniProt P20309)
[4] = target: muscarinic 4 acetylcholine receptor-NanoLuc (human) (UniProt P08173)
[5] = target: muscarinic M5 acetylcholine receptor-NanoLuc (human) (UniProt P08912)
[6] = target: parathyroid hormone 1 receptor-Halo-Tag (human) (UniProt Q03431)

Measured: binding

Halo-Tag-β-arrestin1 (from UniProt P17870 1-418)
not listed: [6]
binds: all other assays above

Halo-Tag-β-arrestin2 (from UniProt P32120 1-420)
not listed: [6]
binds: all other assays above

β-arrestin1-NanoLuc (from UniProt P17870 1-418)
binds: [6]

β-arrestin2-NanoLuc (from UniProt P32120 1-420)
binds: [6]
